These are yes or no findings as the source states them, for the method shown. In cells and extracts the contact can be indirect. Some entries that bind do so weakly or less than the wild type. Tags and fused reporters may be left off the sequences shown.

We go through 1 molecule from publication PMC5335694.

The target of this test is T1, myc-TTC5 (UniProt Q99LG4).
T1 sequence: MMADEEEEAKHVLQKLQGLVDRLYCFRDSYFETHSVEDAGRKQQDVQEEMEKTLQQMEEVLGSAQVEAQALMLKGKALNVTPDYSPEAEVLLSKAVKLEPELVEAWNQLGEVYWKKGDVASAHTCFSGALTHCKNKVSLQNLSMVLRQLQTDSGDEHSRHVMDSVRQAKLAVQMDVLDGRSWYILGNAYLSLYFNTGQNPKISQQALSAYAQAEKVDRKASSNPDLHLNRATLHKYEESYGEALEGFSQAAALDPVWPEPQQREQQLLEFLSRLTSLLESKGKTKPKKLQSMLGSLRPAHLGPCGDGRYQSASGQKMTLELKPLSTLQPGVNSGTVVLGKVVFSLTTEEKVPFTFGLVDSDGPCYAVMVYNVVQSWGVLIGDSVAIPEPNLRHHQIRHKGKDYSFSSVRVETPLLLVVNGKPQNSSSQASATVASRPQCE
Kind of test: co-IP; lysates of 293T cells over-expressing myc-TTC5 and EGFP-TRIP13; immunoprecipitation with anti-c-Myc magnetic beads, blots probed for TTC5 and EGFP.

B1: EGFP-TRIP13 (protein, UniProt Q3UA06 1-432)
chain: MDEAVGDLKQALPCVAESPAVHVEVLQRSGSTAKKEDIKSSVYRLLNRHNIVFGDYVWTEFDDPFLSRNVQSVSIVDTELKAKDPQPIDLSACTIALHIFQLNEEGPSSENLDEETENIIAASHWVLPAAEFHGLWDSLVYDVEVKSHLLDYVMTTVLFSDKNVDSNLITWNRVVLLHGPPGTGKTSLCKALAQKLTIRLSSRYRYGQLIEINSHSLFSKWFSESGKLVTKMFQKIQDLIDDKEALVFVLIDEVESLTAARNACRAGAEPSDAIRVVNAVLTQIDQIKRHSNVVILTTSNITEKIDVAFVDRADIKQYIGPPSAAAIFKIYLSCLEELMKCQIIYPRQQLLTLRELEMIGFIENNVSKLSLLLSEISRKSEGLSGRVLRKLPFLAHALYIQAPSVTIEGFLQALSLAVDKQFEEKKKLSAYV
As to B1, the binding entry is “binds”.
